From PubChem BioAssay AID1259415 (National Center for Advancing Translational Sciences (NCATS), 2018)
Screen size: about 410,000 compounds; about 18,000 (4.4%) were called active. This list was built around the results that the source calls inconclusive (neither active nor inactive); the mix of calls is not that of the screen. Rule as the data show it: active = activity change below about -60%; inconclusive = no clear call, values can overlap the other calls; inactive = above about -39%.
% is scaled to controls: 0 for no effect and ±100 for the full control effect.

Assay: qHTS Assay for inhibitors of the human cytomegalovirus (HCMV)
Conditions: HFF cells, HCMV-luciferase reporter, 72 h; at 57.5 µM; active compounds read low
Method in brief: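 Screen run at 2 compound doses on HFFs infected with reporter HCMV, MOI 1 PFU/cell. Luciferase activity from cell lysates at 72 h post infection gave inhibition relative to buffer-only and Salinomycin wells.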
In the case of `CC(C)(C)c1cc(C=C(C#N)C#N)cc(C(C)(C)C)c1O`, the activity change, negative = inhibition is reported as active: -99.6%.
For `CC(=O)c1ccc(NC(=S)N(CCCN(C)C)Cc2ccccc2)cc1`, the activity change, negative = inhibition was inconclusive: -44.8%.
In the case of `COc1ccc(CNC(=O)CS(=O)(=O)Cc2nc(-c3ccc(OC)cc3)oc2C)cc1`, the activity change, negative = inhibition is reported as inconclusive: -42.9%.
With `CC(CC(=O)N1CCN(c2ccccc2)CC1)c1ccccc1` (stereo not given) the activity change, negative = inhibition was inconclusive: -50.9%.
For `Cc1cc(C)nc(NC(=NCCc2c[nH]c3ccccc23)NC(=O)Nc2ccccc2)n1`, the activity change, negative = inhibition was inconclusive: -50.4%.
With `CCCS(=O)(=O)c1nc(C)cc(C)c1S(C)(=O)=O` the activity change, negative = inhibition was inconclusive: -44.4%.
For `S=C(NCCCn1ccnc1)NC1CCCCC1`, the activity change, negative = inhibition was inconclusive: -44.5%.
For `CCOc1ccc(N(CC(=O)Nc2ccc(C)c(C)c2)S(=O)(=O)c2c(C)noc2C)cc1`, the activity change, negative = inhibition was active: -70.7%.
In the case of `O=C(Nc1ccc2nc(C3CC3)n(Cc3ccccc3)c(=O)c2c1)C1CC1`, the activity change, negative = inhibition is reported as inactive: -15.8%.
With `COc1ccccc1C1=NOC(COc2ccc3c(C)cc(=O)oc3c2)C1` (stereo not given) the activity change, negative = inhibition was active: -94.6%.
In the case of `CCOC(=O)C1=C(C)OC(N)=C(C#N)C1C1CCCCC1` (stereo not given), the activity change, negative = inhibition is reported as inconclusive: -40.8%.
With `O=C(CSc1n[nH]c(-c2cccnc2)n1)Nc1ccc([N+](=O)[O-])cc1` the activity change, negative = inhibition was inactive: 11.4%.
In the case of `Cn1cnc(C(=O)N2CCN(C(=O)OC(C)(C)C)CC2)c1C(=O)N1CCN(C(=O)OC(C)(C)C)CC1`, the activity change, negative = inhibition is reported as inconclusive: -48.1%.
For `Cc1noc(C)c1C(=O)NC(C)C12CC3CC(CC(C3)C1)C2` (stereo not given), the activity change, negative = inhibition was inconclusive: -45.4%.
For `C=C1CCC[C@]2(C)C[C@H]3OC(=O)C(CNCCN(CC)CC)[C@H]3CC12` (stereo not given in full), the activity change, negative = inhibition was inactive: -21.3%.
In the case of `Cc1ccc(NC(=O)CSc2nnc(-c3ccncc3)n2C)cc1S(=O)(=O)N1CCOCC1`, the activity change, negative = inhibition is reported as inconclusive: -47.8%.
With `Cc1c(NC(=O)c2cccc(-c3cc4ccccc4oc3=O)c2)cccc1-c1nc2ncccc2o1` the activity change, negative = inhibition was active: -67.6%.
With `Cc1cc2cc(CNC(=O)c3ccco3)ccc2n1C` the activity change, negative = inhibition was inconclusive: -48.1%.
With `CCOC(=O)C1=C(c2cccc(F)c2)NC(=S)NC1C` (stereo not given) the activity change, negative = inhibition was inconclusive: -56.9%.
With `CCOc1ccccc1N1CC(C(=O)Nc2ccc(S(=O)(=O)N3CCCCC3)cc2)CC1=O` (stereo not given) the activity change, negative = inhibition was inconclusive: -44%.
In the case of `Cc1ccc2c(CN(C)Cc3ccccc3)cc(=O)oc2c1C`, the activity change, negative = inhibition is reported as inconclusive: -59.2%.
For `CCNC(=S)Nc1cccc(Cl)c1C`, the activity change, negative = inhibition was inconclusive: -42.3%.
With `Cc1ccc(C)c(N2CCN(CCCNC(=O)c3cnn(-c4ccccc4)c3C3CCN(C(=O)OC(C)(C)C)CC3)CC2)c1` the activity change, negative = inhibition was inconclusive: 0%.
With `Cc1cc(NC(=S)N(Cc2cccc(Br)c2)CC2CCC(C(=O)O)CC2)ccc1Cl` (stereo not given) the activity change, negative = inhibition was inconclusive: -42.6%.
For `Cc1ccc(N(C(=O)Cc2c[nH]c3ccccc23)C(C(=O)NC2CCCCC2)c2ccco2)cc1` (stereo not given), the activity change, negative = inhibition was inconclusive: -45.7%.
In the case of `Cc1cccc(CCn2c(=O)c3ccccc3n(CC(=O)Nc3ccccc3F)c2=O)c1`, the activity change, negative = inhibition is reported as inactive: -30.7%.
With `O=c1[nH]c2ccc(S(=O)(=O)N3CCN(c4ccccc4F)CC3)cc2s1` the activity change, negative = inhibition was inconclusive: -52%.
For `CC(=O)Nc1ccc(/C=C2\CCc3ccccc3C2=O)cc1`, the activity change, negative = inhibition was inactive: 38%.
In the case of `CCN(C(=O)COC(=O)c1n[nH]c2ccccc12)C1CCS(=O)(=O)C1` (stereo not given), the activity change, negative = inhibition is reported as inconclusive: -48.9%.
With `CCCc1cc(-c2n[nH]c(C(=O)OCC)c2-c2cscn2)c(O)cc1O` the activity change, negative = inhibition was active: -86.8%.
For `CCOC(=O)c1sc2nc(CC(=O)OC)nc(NCC(=O)OC)c2c1C`, the activity change, negative = inhibition was inconclusive: -42.3%.
In the case of `COc1ccccc1C(=O)Oc1c(Sc2ccccc2)c(C)nn1-c1ccccc1`, the activity change, negative = inhibition is reported as inconclusive: -47.4%.
For `O=S(=O)(Cc1ccccc1Cl)N1CCCC1`, the activity change, negative = inhibition was inconclusive: -40.5%.
For `S=c1[nH]ccn1Cc1ccccc1`, the activity change, negative = inhibition was inconclusive: -56.3%.
In the case of `Cc1ccc(/C(O)=C2\C(=O)C(=O)N(C)C2c2ccc(F)cc2)cc1` (stereo not given), the activity change, negative = inhibition is reported as inactive: 14.3%.
In the case of `COC(=O)C1=C(C)N(Cc2cccnc2)C(=O)/C1=C\c1sccc1C`, the activity change, negative = inhibition is reported as inactive: 115%.
In the case of `CN1C(=O)c2ccccc2Sc2ccc(NC(=O)NCc3ccc(Cl)cc3)cc21`, the activity change, negative = inhibition is reported as active: -89.3%.
With `Cc1ccc(NC(=O)C2CCN(c3ncnc4c3nc3n4CCCCC3)CC2)cc1Cl` the activity change, negative = inhibition was inactive: -13.5%.
With `COc1cc(CCC(=O)Nc2cc(C)cc(C)c2)cc(OC)c1OC` the activity change, negative = inhibition was inconclusive: -42.2%.
For `COc1ccc(/C=C2\Cc3ccccc3C2=O)cc1OC`, the activity change, negative = inhibition was inconclusive: -40.4%.
For `Clc1ccccc1C1=Nn2c(nnc2-c2ccco2)SC1`, the activity change, negative = inhibition was inconclusive: -49.3%.
In the case of `Oc1ccccc1C1CCCCC1c1ccccc1` (stereo not given), the activity change, negative = inhibition is reported as active: -68%.
In the case of `COc1ccc([N+](=O)[O-])cc1/C=N/NC(=O)CNC(=O)c1cccc(F)c1`, the activity change, negative = inhibition is reported as inactive: 4.35%.
With `NS(=O)(=O)c1ccc(NC(=O)COc2ccc(S(=O)(=O)NC3CCCCC3)cc2)cc1` the activity change, negative = inhibition was inactive: 15.5%.
With `COc1ccc(-n2cc(CN(C)C3CCOCC3)c(-c3cccc(F)c3)n2)cc1` the activity change, negative = inhibition was inactive: -24.1%.
With `CC(=O)C1(C)CCC2C3C=C(C)C4=CC(=O)CCC4(C)C3CCC21C` (stereo not given) the activity change, negative = inhibition was inactive: -14%.
In the case of `CCOC(=O)c1c(C)n(C)c2cc(CN(C)C)c(O)c(S(=O)(=O)c3ccccc3)c12`, the activity change, negative = inhibition is reported as active: -69.2%.
With `Cc1ccc(NC(=O)CSC2=NCCN2)cc1` the activity change, negative = inhibition was inconclusive: -46.8%.
With `Cc1cc(NC(=O)c2cc(Cl)ccc2Cl)ccc1-c1cc2ccccc2oc1=O` the activity change, negative = inhibition was inconclusive: -40.4%.
With `O=[N+]([O-])c1ccc(NS(=O)(=O)c2ccc(Cl)c(Cl)c2)cc1` the activity change, negative = inhibition was active: -63.7%.
With `CCC1=C(OC(=O)N(CC)CC)N2C(=O)OC(=NCCc3c[nH]c4ccccc34)[C@]2(C)[C@H]2C1=CC[C@H]1C(=O)N(CC(=O)OC)C(=O)[C@H]12` the activity change, negative = inhibition was inconclusive: -40.6%.
In the case of `S=C(c1ccc(-c2ccccc2)cc1)N1CCOCC1`, the activity change, negative = inhibition is reported as active: -83.5%.
In the case of `Cc1ccc(C)c(NC(=O)N2CCN3CCCCC3C2)c1` (stereo not given), the activity change, negative = inhibition is reported as inconclusive: -59%.
In the case of `Cc1cc(C)cc(NC(=O)Cn2c(=O)oc3cc(S(=O)(=O)N4CCC(C)CC4)ccc32)c1`, the activity change, negative = inhibition is reported as active: -68.5%.
In the case of `CCn1c(=O)n(CC)c2cc(N3CCCC3)c(NC(=O)c3ccccc3)cc21`, the activity change, negative = inhibition is reported as inactive: 13.2%.
